Source: PubChem BioAssay AID1259276 (Sanger Institute, 2017)
Aim: 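Kinase knock-downs that reduce colorectal cancer cell viability alone or with anchor drugs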 (primary screen). Cell system: human C2BBe1 colorectal cancer cells. Reagent: siRNA pool against human genes. Treatment: DMSO vehicle, or one anchor drug: BYL719 at 1 µM, cetuximab at 5 µg/ml, or trametinib at 10 nM; exposure length not stated. Measured: 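Viability after knock-down relative to non-targeting siRNA controls, averaged across replicates, given as ratio and control-derived robust z-score, with per-drug synergy scores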. Direction: viability robust z-score, siRNA alone: higher = more viable cells after knock-down. Call rule: 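Called essential when knock-down alone gives a viability robust z-score below -3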. Calls: active = essential (siRNA alone); inactive = no change (siRNA alone).
Here is an unselected part of 794 reagents. 24 of all reagents (3%) count as active. 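Calls come only from the siRNA-alone arm; drug synergy scores do not affect them.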 Entries without a mark were called inactive. Reagents against one gene are numbered here. Further read-outs or replicates are left out here. Not stated in the record: the amount of reagent, the time to read-out.

Target gene | pool no. | viability robust z-score, siRNA alone
DYRK1A (GeneID 1859) | 1 | -0.431
BCR (GeneID 613) | 1 | -0.753
LRRK2 (GeneID 120892) | 1 | 0.472
MAPK7 (GeneID 5598) | 1 | 0.472
ALPK3 (GeneID 57538) | 1 | 0.472
RIPK4 (GeneID 54101) | 1 | 0.472
PRKCD (GeneID 5580) | 1 | 0.472
UCK1 (GeneID 83549) | 1 | 0.472
LTK (GeneID 4058) | 1 | 0.472
DCLK3 (GeneID 85443) | 1 | 0.472
DGKI (GeneID 9162) | 1 | 0.472
PAK4 (GeneID 10298) | 1 | 0.472
PRKCG (GeneID 5582) | 1 | 0.472
ADCK5 (GeneID 203054) | 1 | -0.85
ILK (GeneID 3611) | 1 | 0.472
ILK (GeneID 3611) | 2 | 0.472
MAP3K11 (GeneID 4296) | 1 | 0.472
TLK2 (GeneID 11011) | 1 | 0.472
PIP5KL1 (GeneID 138429) | 1 | 0.472
RIOK1 (GeneID 83732) | 1 | 0.472
UHMK1 (GeneID 127933) | 1 | 0.472
CKS2 (GeneID 1164) | 1 | 0.472
EPHB1 (GeneID 2047) | 1 | 0.472
FLT4 (GeneID 2324) | 1 | 0.472
TCF7L2 (GeneID 6934) | 1 | 0.472
GK2 (GeneID 2712) | 1 | 0.472
STK38 (GeneID 11329) | 1 | 0.472
TESK1 (GeneID 7016) | 1 | -1.24
PRKAB1 (GeneID 5564) | 1 | -1.31
MAST3 (GeneID 23031) | 1 | 0.472
CDK12 (GeneID 51755) | 1 | -1.54
DLG4 (GeneID 1742) | 1 | 0.472
TK2 (GeneID 7084) | 1 | 0.472
PCK2 (GeneID 5106) | 1 | 0.472
CDK5 (GeneID 1020) | 1 | 0.472
CDC42BPG (GeneID 55561) | 1 | 0.472
DGUOK (GeneID 1716) | 1 | -0.765
ACVR1C (GeneID 130399) | 1 | 0.472
CDK20 (GeneID 23552) | 1 | -0.529
CALM2 (GeneID 805) | 1 | 0.472
MSR1 (GeneID 4481) | 1 | 0.472
MAPKAPK3 (GeneID 7867) | 1 | -0.481
PDK2 (GeneID 5164) | 1 | 0.472
ROR1 (GeneID 4919) | 1 | 0.472
TAF1L (GeneID 138474) | 1 | -3.15 (active)
CTCF (GeneID 10664) | 1 | 0.472
CSK (GeneID 1445) | 1 | 0.472
DLG1 (GeneID 1739) | 1 | -0.641
MAP4K1 (GeneID 11184) | 1 | 0.472
HIPK1 (GeneID 204851) | 1 | 0.472

5 successive records from above:
Target gene | pool no. | viability robust z-score, siRNA alone
RIOK1 (GeneID 83732) | 1 | 0.472
UHMK1 (GeneID 127933) | 1 | 0.472
CKS2 (GeneID 1164) | 1 | 0.472
EPHB1 (GeneID 2047) | 1 | 0.472
FLT4 (GeneID 2324) | 1 | 0.472
